# Data: patent US20250223404A1, “SHAPED ARTICLE COMPRISING A POLY(ARYL ETHER SULFONE) (PAES) POLYMER AND METHOD OF MAKING USING MELT PROCESSING” (Solvay Specialty Polymers USA, LLC, priority 2022, published 2025)
# Some entries share one result that the patent states for a list of compounds.
# Target: T1, human Estrogen receptor alpha (ERα) (Homo sapiens, UniProt P03372)
# T1 construct: expressed in transfected cells; host or cells: GeneBLAzer ER-α-UAS-bla GripTite 293 cells (stably integrated)
# T1 sequence (P03372 311-547 limits assumed): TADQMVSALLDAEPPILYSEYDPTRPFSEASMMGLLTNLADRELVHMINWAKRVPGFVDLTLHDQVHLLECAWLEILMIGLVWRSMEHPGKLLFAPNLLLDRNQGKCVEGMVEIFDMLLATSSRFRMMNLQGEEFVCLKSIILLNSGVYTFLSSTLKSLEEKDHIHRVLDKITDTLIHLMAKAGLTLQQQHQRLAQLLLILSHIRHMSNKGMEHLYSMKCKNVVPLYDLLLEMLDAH
# Assay: GeneBLAzer Cell-Based Nuclear Receptor Assay (beta-lactamase reporter), ER-α-UAS-bla GripTite 293 cells
# Protocol: The response value “EC50” was measured by using the GeneBLAzer® Cell-Based Nuclear Receptor Assay technology which uses the GeneBLAzer®.
# The monomers (see Table 7) were dissolved in 100% biological-grade DMSO at a concentration of 7 to 250000 nM (nanomolar). The ER-α-UAS-bla GripTite™ 293 cells were used to measure EC50. The higher the EC50 value is, the weaker the estrogenic agonist activity is for the monomer tested.
# The GeneBLAzer® ER-α-UAS-bla GripTite™ cells contain a ligand-binding domain (LBD) of the human Estrogen receptor alpha (ERα) fused to a DNA-binding domain of GAL4 plasmid stably integrated in the GeneBLAzer® UAS-bla GripTite™ cell line. The GeneBLAzer® UAS-bla GripTite™ cells stably express a beta-lactamase reporter gene under the transcriptional control of an upstream activator sequence (UAS). When an estrogenic agonist binds to the LBD of the GAL4 (DBD)-ER α (LBD) fusion protein, the protein binds to the UAS, resulting in expression of beta-lactamase.
compound,measurement,setting,value
"Oc1cccc2c(O)cccc12 [1,5-NDO, 1,5 Naphthalene diol]",EC50 fold higher than BP,ratio of EC50 versus BP,at least 10 fold
same,EC50 fold higher than BPA,ratio of EC50 versus BPA,at least 100 fold
